At least one structure is not confirmed: it was looked up by name or label, or the drawing left a doubt.
System: HIV-1
Assay: HIV-1 single-round infectious luciferase reporter virus (pseudotype) assay in HeLa CD4 CCR5 cells
Format: cell-based
Settings: HIV-1 single-round reporter virus assay; category 1/2/3 per Table A1 key
Experimental: • Virus production—Human embryonic Kidney cell line, 293, propagated in Dulbecco's Modified Eagle Medium (Life Technologies, Gaithersburg, Md.) containing 10% fetal Bovine serum (FBS, Sigma, St. Louis, Mo.). • Virus infection—Human epithelial cell line, HeLa, expressing the HIV-1 receptors CD4 and CCR^5 was propagated in Dulbecco's Modified Eagle Medium (Life Technologies, Gaithersburg, Md.) containing 10% fetal Bovine serum (FBS, Sigma, St. Louis, Mo.) and supplemented with 0.2 mg/mL Geneticin (Life Technologies, Gaithersburg, Md.) and 0.4 mg/mL Zeocin (Invitrogen, Carlsbad, Calif.). […] Viral infection was monitored by measuring luciferase expression from viral DNA in the infected cells using a luciferase reporter gene assay kit (Roche Molecular Biochemicals, Indianapolis, Ind.). […] Luciferase activity was then quantified by measuring luminescence using a Wallac microbeta scintillation counter. • 5. […] The effective concentration for fifty percent inhibition (EC50) was calculated with the Microsoft Excel Xlfit curve fitting software. For each compound, curves were generated from percent inhibition calculated at 10 different concentrations by using a four paramenter logistic model (model 205). […]
In Table 5, X2, X4 etc. indicates the point of attachment. […] The data at 10 μM was calculated in the following manner: […]

Q: With Cc1ccc(-c2nccc3c(C(=O)C(=O)N4CCN(C(=O)c5ccccc5)C[C@H]4C)c[nH]c23)cc1N [Example 3, 1-benzoyl-3-®-methyl-4-[(7-(3-amino-4-methylphenyl)-6-azaindol-3-yl)-oxoacetyl] piperazine] as the compound, how does the EC50 read?
A: 0.2 to 1000 nM

Reference: US20050090522A1 (priority 2001, published 2005)
